PubChem BioAssay AID504764 | Drosophila RNAi Screening Center | 2011
In all, the deposit lists about 22,000 reagents; shown is an unselected part of those with a known target gene and a result. Of all reagents, 403 (1.9%) got an active call. 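Unnormalised raw counts per well; ratio z-scores behind the hit calls and whether each hit raises or lowers signal are not deposited.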 Reagents against one gene are numbered here. Names joined by + are all predicted targets of the reagent. The record does not give: the amount of reagent.

- Test: 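Genome-wide screen for regulators of Notch-driven gene expression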 (primary screen)
- Cells: Drosophila Kc167 cells
- Reagent: long dsRNA against Drosophila genes
- Timing: about 5 days (4 days dsRNA, then 24 h after transfection)
- Conditions: transfection of constitutively active membrane-tethered Notch lacking the extracellular domain, read 24 h later
- Measurement: 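Light from a Notch-responsive E(spl)m3 luciferase reporter under active Notch, with control-promoter and no-Notch reporter wells to normalise; raw counts from paired wells a and b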
- Direction: induced reporter light, run 1, well a and induced reporter light, run 1, well b: higher = more light from the Notch target reporter with active Notch; control promoter light, run 1, well a and control promoter light, run 1, well b: higher = more light from the viral control promoter (cell number, transfection, viability); uninduced reporter light, run 1, well a: higher = more light from the Notch target reporter without active Notch
- Active means: 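Wells with low control signal or poorly matching duplicates excluded; duplicates averaged; per source plate, z beyond ±2 for induced/control log2 ratio or beyond ±1.8 for induced/uninduced marks a hit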
- Calls: active = modifier hit (raised or lowered Notch signal); inactive = not a hit

After knock-down of CG42579, the record shows induced reporter light, run 1, well a = 1.02e5; induced reporter light, run 1, well b = 1.08e5; control promoter light, run 1, well a = 1.17e5; control promoter light, run 1, well b = 1.22e5; uninduced reporter light, run 1, well a = 9555; inactive. With knock-down of MED20 (Mediator complex subunit 20), the record shows induced reporter light, run 1, well a = 1.04e5; induced reporter light, run 1, well b = 1.25e5; control promoter light, run 1, well a = 63095; control promoter light, run 1, well b = 77890; uninduced reporter light, run 1, well a = 16200; inactive. Orc5 (Origin recognition complex subunit 5) gave induced reporter light, run 1, well a = 80115; induced reporter light, run 1, well b = 99405; control promoter light, run 1, well a = 1.21e5; control promoter light, run 1, well b = 1.06e5; uninduced reporter light, run 1, well a = 7600; inactive. With knock-down of CecC (Cecropin C), the screen gave induced reporter light, run 1, well a = 1.81e5; induced reporter light, run 1, well b = 1.01e5; control promoter light, run 1, well a = 1.98e5; control promoter light, run 1, well b = 1.81e5; uninduced reporter light, run 1, well a = 12120; inactive. For Cyp308a1 (Cytochrome P450 308a1), the values are induced reporter light, run 1, well a = 1.05e5; induced reporter light, run 1, well b = 1.02e5; control promoter light, run 1, well a = 1.24e5; control promoter light, run 1, well b = 1.34e5; uninduced reporter light, run 1, well a = 11905; inactive. betaTub56D (beta-Tubulin at 56D) showed induced reporter light, run 1, well a = 16390; induced reporter light, run 1, well b = 12260; control promoter light, run 1, well a = 23070; control promoter light, run 1, well b = 20265; uninduced reporter light, run 1, well a = 2832; inactive.

CG15126 scored induced reporter light, run 1, well a = 38370; induced reporter light, run 1, well b = 35250; control promoter light, run 1, well a = 35020; control promoter light, run 1, well b = 37605; uninduced reporter light, run 1, well a = 4080; inactive. Silencing of CG8097 resulted in: induced reporter light, run 1, well a = 77755; induced reporter light, run 1, well b = 66080; control promoter light, run 1, well a = 72035; control promoter light, run 1, well b = 48735; uninduced reporter light, run 1, well a = 9732; inactive. Depletion of CG4641 (retired record) resulted in: induced reporter light, run 1, well a = 1.63e5; induced reporter light, run 1, well b = 1.18e5; control promoter light, run 1, well a = 1.12e5; control promoter light, run 1, well b = 83645; uninduced reporter light, run 1, well a = 14715; inactive. Silencing of CG12920 resulted in: induced reporter light, run 1, well a = 1.83e5; induced reporter light, run 1, well b = 1.97e5; control promoter light, run 1, well a = 3.03e5; control promoter light, run 1, well b = 2.75e5; uninduced reporter light, run 1, well a = 19845; inactive. With knock-down of Nepl3 (Neprilysin-like 3), the screen gave induced reporter light, run 1, well a = 1.60e5; induced reporter light, run 1, well b = 1.77e5; control promoter light, run 1, well a = 1.72e5; control promoter light, run 1, well b = 1.80e5; uninduced reporter light, run 1, well a = 18830; inactive. With knock-down of CG32073 #1, the screen gave induced reporter light, run 1, well a = 1.92e5; induced reporter light, run 1, well b = 1.90e5; control promoter light, run 1, well a = 1.86e5; control promoter light, run 1, well b = 1.69e5; uninduced reporter light, run 1, well a = 14550; inactive.

With knock-down of CG32073 #2 the results were induced reporter light, run 1, well a = 1.79e5; induced reporter light, run 1, well b = 1.35e5; control promoter light, run 1, well a = 1.84e5; control promoter light, run 1, well b = 1.55e5; uninduced reporter light, run 1, well a = 8105; inactive. CG33640 showed induced reporter light, run 1, well a = 1.26e5; induced reporter light, run 1, well b = 1.31e5; control promoter light, run 1, well a = 1.37e5; control promoter light, run 1, well b = 1.51e5; uninduced reporter light, run 1, well a = 9780; inactive. For Rca1 (Regulator of cyclin A1) the deposit lists induced reporter light, run 1, well a = 43675; induced reporter light, run 1, well b = 53830; control promoter light, run 1, well a = 51220; control promoter light, run 1, well b = 49920; uninduced reporter light, run 1, well a = 3770; inactive. ball (ballchen) showed induced reporter light, run 1, well a = 38720; induced reporter light, run 1, well b = 45345; control promoter light, run 1, well a = 1.18e5; control promoter light, run 1, well b = 95495; uninduced reporter light, run 1, well a = 2505; active. CG33722 + CG18749 #1 gave induced reporter light, run 1, well a = 1.76e5; induced reporter light, run 1, well b = 1.32e5; control promoter light, run 1, well a = 1.81e5; control promoter light, run 1, well b = 1.88e5; uninduced reporter light, run 1, well a = 12695; inactive. Silencing of CG33722 + CG18749 #2 resulted in: induced reporter light, run 1, well a = 95695; induced reporter light, run 1, well b = 95075; control promoter light, run 1, well a = 82460; control promoter light, run 1, well b = 47745; uninduced reporter light, run 1, well a = 5260; inactive.

sti (sticky) #1 showed induced reporter light, run 1, well a = 1.62e5; induced reporter light, run 1, well b = 1.16e5; control promoter light, run 1, well a = 2.08e5; control promoter light, run 1, well b = 1.63e5; uninduced reporter light, run 1, well a = 9160; inactive. After knock-down of sti (sticky) #2 the results were induced reporter light, run 1, well a = 2.65e5; induced reporter light, run 1, well b = 1.59e5; control promoter light, run 1, well a = 2.18e5; control promoter light, run 1, well b = 22785; uninduced reporter light, run 1, well a = 16065; inactive. After knock-down of rpr (reaper), the record shows induced reporter light, run 1, well a = 1.73e5; induced reporter light, run 1, well b = 1.79e5; control promoter light, run 1, well a = 2.03e5; control promoter light, run 1, well b = 1.94e5; uninduced reporter light, run 1, well a = 7705; inactive. Against cpb (capping protein beta), the entry reads induced reporter light, run 1, well a = 1.28e5; induced reporter light, run 1, well b = 1.39e5; control promoter light, run 1, well a = 1.76e5; control promoter light, run 1, well b = 1.75e5; uninduced reporter light, run 1, well a = 11770; inactive. Against Prosalpha1R + Prosalpha1, the values are induced reporter light, run 1, well a = 1.46e5; induced reporter light, run 1, well b = 1.40e5; control promoter light, run 1, well a = 99255; control promoter light, run 1, well b = 1.05e5; uninduced reporter light, run 1, well a = 7850; inactive. Silencing of CG12237 gave: induced reporter light, run 1, well a = 86865; induced reporter light, run 1, well b = 92735; control promoter light, run 1, well a = 90820; control promoter light, run 1, well b = 45650; uninduced reporter light, run 1, well a = 7805; inactive.

Reagents listed so far called active, once more:
ball (ballchen) | induced reporter light, run 1, well a = 38720; induced reporter light, run 1, well b = 45345; control promoter light, run 1, well a = 1.18e5; control promoter light, run 1, well b = 95495; uninduced reporter light, run 1, well a = 2505; call = active
